The supplement of paper PMC12823440, “Inhibitors supercharge kinase turnover through native proteolytic circuits” (Nature, 2025)
Where a name gives a salt, the structure may show the parent alone. Some of the results follow. The calls rarely recur for the same compound in another form.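 Kinases were expressed as nanoluciferase fusions in K562 cells and luminescence was read every 4 h between 2 and 18 h as percent of control, DMSO set to 100% and a positive control to 0%. A time point counts as decreased when the signal drops significantly (2 sigma). The hit call is the authors' own, does not follow from the count of time points alone, and its rule is not shown.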

By UniProt entry, the sequences of proteins in these tests, tags left out. Where a name states a change or a piece, a line headed by the entry shows the natural chain unless it says otherwise.
UniProt Q9Y463, whole entry, looked up: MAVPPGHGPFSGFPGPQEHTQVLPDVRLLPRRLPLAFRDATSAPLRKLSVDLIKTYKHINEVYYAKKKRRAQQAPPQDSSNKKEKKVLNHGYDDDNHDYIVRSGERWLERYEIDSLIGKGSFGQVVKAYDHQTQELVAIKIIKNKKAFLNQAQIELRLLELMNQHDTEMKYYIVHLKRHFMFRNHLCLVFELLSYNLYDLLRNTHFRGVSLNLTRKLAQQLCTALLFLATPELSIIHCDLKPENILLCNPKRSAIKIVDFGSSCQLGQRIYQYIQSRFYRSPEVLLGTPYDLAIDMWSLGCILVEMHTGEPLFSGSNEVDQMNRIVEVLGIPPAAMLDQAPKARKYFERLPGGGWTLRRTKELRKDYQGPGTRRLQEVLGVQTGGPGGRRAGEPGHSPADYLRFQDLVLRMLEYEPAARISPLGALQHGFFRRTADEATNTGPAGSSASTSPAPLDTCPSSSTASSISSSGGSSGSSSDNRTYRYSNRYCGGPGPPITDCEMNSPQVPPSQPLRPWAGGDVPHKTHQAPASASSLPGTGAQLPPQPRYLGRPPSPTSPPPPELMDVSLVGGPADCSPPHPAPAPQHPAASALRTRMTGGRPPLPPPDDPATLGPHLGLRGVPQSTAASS
UniProt Q92630: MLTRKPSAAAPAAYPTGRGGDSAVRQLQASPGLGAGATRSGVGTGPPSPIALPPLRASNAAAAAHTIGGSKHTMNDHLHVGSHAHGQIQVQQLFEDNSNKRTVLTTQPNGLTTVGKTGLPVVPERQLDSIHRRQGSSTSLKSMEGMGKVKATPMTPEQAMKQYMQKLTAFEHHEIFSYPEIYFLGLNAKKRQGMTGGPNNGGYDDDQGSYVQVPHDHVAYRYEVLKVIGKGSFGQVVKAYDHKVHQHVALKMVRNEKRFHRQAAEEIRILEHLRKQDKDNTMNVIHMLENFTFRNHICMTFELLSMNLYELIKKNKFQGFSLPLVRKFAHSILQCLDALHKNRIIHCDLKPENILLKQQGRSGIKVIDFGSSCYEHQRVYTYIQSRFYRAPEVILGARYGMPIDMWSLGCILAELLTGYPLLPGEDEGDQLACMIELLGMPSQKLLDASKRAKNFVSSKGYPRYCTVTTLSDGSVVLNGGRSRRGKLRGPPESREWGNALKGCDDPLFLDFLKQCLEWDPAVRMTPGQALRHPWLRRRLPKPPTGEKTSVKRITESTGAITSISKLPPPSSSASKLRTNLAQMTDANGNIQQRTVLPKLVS

target: DYRK1B (UniProt Q9Y463); assay: kinase-Nluc reporter destabilization hit call (1 = scored as downregulated) (binary); higher = compound decreases kinase abundance; conditions: K562; 2-18 h

kinase-Nluc reporter destabilization hit call, inactive:
COc1cc(C(=O)NC2CCN(C)CC2)ccc1Nc1ncc2c(n1)N(C1CCCC1)CC(F)(F)C(=O)N2C (10 µM) 0
CCN1CCN(c2ccc(Nc3cc(N(C)C(=O)Nc4c(Cl)c(OC)cc(OC)c4Cl)ncn3)cc2)CC1 [Infigratinib] (10 µM) 0
CN1CCN(S(=O)(=O)c2ccc(-c3cnc(N)c(C(=O)Nc4cccnc4)n3)cc2)CC1 (10 µM) 0
Cc1cccc([C@@H](CO)NC(=O)[C@@H](C)N2Cc3ccc(-c4nc(NC5CCOCC5)ncc4Cl)cc3C2=O)c1 [ERK1/2 inhibitor 1] (10 µM) 0
COc1cc(CCc2cc(-c3nc4ccc(N5CCN(C)CC5)cc4[nH]3)n[nH]2)cc(OC)c1 (10 µM) 0
Cc1cc(CS(=O)(=O)c2ccccc2)cc(OCc2ccc(CN3CCC[C@@H]3CO)cc2)c1 [PF-543 (Citrate)] (10 µM) 0
Cc1[nH]c(/C=C2\C(=O)Nc3ccc(S(=O)(=O)Cc4c(Cl)cccc4Cl)cc32)c(C)c1C(=O)N1CCC[C@@H]1CN1CCCC1 (2.5 µM) 0
Cc1cc(F)c(C(=O)Nc2cccc(-c3nncn3C(C)C)n2)cc1-n1cnc(C2CC2)c1 [Selonsertib] (10 µM) 0
COCCOc1cc2nccc(Nc3n[nH]c(C)c3C)c2cc1S(=O)(=O)C(C)(C)C [RIP2 kinase inhibitor 2] (2.5 µM) 0

target: DYRK2 (UniProt Q92630); assay: as above; conditions: K562; 2-18 h

kinase-Nluc reporter destabilization hit call, inactive:
N#Cc1ccc2[nH]c(O)c(-c3ccc(CN4CCOCC4)cn3)c2c1 (10 µM) 0
O=C1NCCc2[nH]c(-c3ccnc(-c4cnc5ccccc5c4)c3)cc21 (10 µM) 0
Oc1cc(O)cc(/C=C/c2ccc(O)c(O)c2)c1 [Piceatannol] (10 µM) 0
O=C(NOC[C@H](O)CO)c1ccc(F)c(F)c1Nc1ccc(I)cc1F (2.5 µM) 0
Cn1c(=O)n(-c2ccc(C(C)(C)C#N)cc2)c2c3cc(-c4cnc5ccccc5c4)ccc3ncc21 [Dactolisib (Tosylate)] (10 µM) 0
CCCCNc1ncc(-c2ccc(CN3CCOCC3)cn2)c(NC2CCC(O)CC2)n1 (centres undefined) (10 µM) 0
O=C(Nc1cc(C(F)(F)F)ccc1N1CCN(Cc2ccccn2)CC1)c1ccc(-c2ccncc2)o1 (10 µM) 0
CC[C@H](CO)Nc1nc(NCc2ccccc2)c2ncn(C(C)C)c2n1 [Seliciclib] (10 µM) 0
COC(=O)c1ccc2c(C(=Nc3ccc(N(C)C(=O)CN4CCN(C)CC4)cc3)c3ccccc3)c(O)[nH]c2c1 [Nintedanib] (2.5 µM) 0
COc1cc(F)cc([C@@H](CO)NC(=O)[C@@H](C)N2Cc3ccc(-c4nc(NC5CCOCC5)ncc4Cl)cc3C2=O)c1 [ERK1/2 inhibitor 2] (10 µM) 0
CC(C)c1ccc2oc3nc(N)c(C(=O)O)cc3c(=O)c2c1 [Amlexanox] (10 µM) 0
CN(C)C[C@@H]1CCn2cc(c3ccccc32)C2=C(C(=O)NC2=O)c2cn(c3ccccc23)CCO1 [Ruboxistaurin (hydrochloride)] (10 µM) 0
CCc1nc(-c2cccc(C)c2)c(-c2ccnc(NC(=O)c3ccccc3)c2)s1 (10 µM) 0
CCOc1cc2ncc(-c3cc(N)nc(F)c3)n2cc1S(=O)(=O)C(C)(C)C (10 µM) 0
CC(C)(/C=C(\C#N)C(=O)N1CCC[C@@H](n2nc(-c3ccc(Oc4ccccc4)cc3F)c3c(N)ncnc32)C1)N1CCN(C2COC2)CC1 (2.5 µM) 0
CCCn1cnc2c(NCc3ccccc3)nc(NC(CC)CO)nc21 (centres undefined) [Ca2+ channel agonist 1] (2.5 µM) 0
Brc1c(Br)c(Br)c2n[nH]nc2c1Br (10 µM) 0
Nc1nc(OCC2CCCCC2)c2[nH]cnc2n1 (10 µM) 0
COc1ccc(Oc2cc(NCCC(F)(F)F)c3ncc(-c4ccc(C(=O)NC5CC5)c(C)c4)n3n2)c(F)c1F (2.5 µM) 0
COc1cc(C(=O)NC2CCN(C)CC2)c(F)cc1Nc1ncc2c(n1)N(C1CCCC1)CC(F)(F)C(=O)N2C [TAK-960 (dihydrochloride)] (2.5 µM) 0

Part of the list above in order of SMILES length, falling:
kinase-Nluc reporter destabilization hit call, inactive:
COc1cc(F)cc([C@@H](CO)NC(=O)[C@@H](C)N2Cc3ccc(-c4nc(NC5CCOCC5)ncc4Cl)cc3C2=O)c1 [ERK1/2 inhibitor 2] (10 µM) 0
CCOc1cc2ncc(-c3cc(N)nc(F)c3)n2cc1S(=O)(=O)C(C)(C)C (10 µM) 0
Brc1c(Br)c(Br)c2n[nH]nc2c1Br (10 µM) 0
